Laboratory results published in article PMC6358605.
No constants are given. Whether binding was seen depends on the method and setting. In cells and extracts the contact can be indirect. These calls come from enrichment with a bait or labelling near it, and not all partners need be listed. Tags and fused reporters may be left off the sequences shown.

Sequences of proteins named here, by UniProt entry; tags and fusion partners are left off. Residues count along the entry.
UniProt G3I8R9, residues 19-654: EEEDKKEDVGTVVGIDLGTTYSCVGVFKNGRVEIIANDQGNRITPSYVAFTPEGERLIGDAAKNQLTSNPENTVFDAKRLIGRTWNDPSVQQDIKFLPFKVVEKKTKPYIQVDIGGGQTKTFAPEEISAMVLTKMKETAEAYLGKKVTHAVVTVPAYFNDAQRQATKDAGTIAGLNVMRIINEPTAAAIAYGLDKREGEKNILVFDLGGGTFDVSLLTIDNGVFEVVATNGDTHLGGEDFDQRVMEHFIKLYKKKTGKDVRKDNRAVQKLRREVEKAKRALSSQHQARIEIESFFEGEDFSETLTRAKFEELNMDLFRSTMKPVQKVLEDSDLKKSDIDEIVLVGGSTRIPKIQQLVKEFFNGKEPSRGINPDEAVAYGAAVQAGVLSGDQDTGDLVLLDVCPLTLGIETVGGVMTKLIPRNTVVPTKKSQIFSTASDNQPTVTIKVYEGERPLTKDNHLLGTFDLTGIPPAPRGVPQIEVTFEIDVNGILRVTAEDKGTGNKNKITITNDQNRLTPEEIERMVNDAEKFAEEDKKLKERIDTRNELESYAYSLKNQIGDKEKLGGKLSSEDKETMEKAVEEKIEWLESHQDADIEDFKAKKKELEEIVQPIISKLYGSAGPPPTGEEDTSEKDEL

Biological target: T1, FLAG-M1-MANF (UniProt Q9CXI5)
T1 sequence: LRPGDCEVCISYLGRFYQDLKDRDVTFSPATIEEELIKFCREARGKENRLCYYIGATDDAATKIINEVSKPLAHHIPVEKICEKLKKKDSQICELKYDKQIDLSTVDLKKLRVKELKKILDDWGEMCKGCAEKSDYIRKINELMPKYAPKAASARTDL
Assay: affinity purification with mass spectrometry; in vivo cross-linking with 1 mM DSP, lysis in TBS/Ca2+ buffer, ANTI-FLAG-M1 agarose IP of FLAG-M1-MANF from CHO-K1 S21 MANF-/- cells; Coomassie bands excised and analysed by mass spectrometry

| Substance | binding |
| --- | --- |
| Grp94 | binds |
| endogenous BiP (CHO-K1 S21 cells) (from UniProt G3I8R9 19-654) | binds |
